Test results published in PMC3927958.
No constants are given. Whether binding was seen depends on the method and setting. Binding seen in cells or lysates may run through a third protein. Some binding calls cover weakened binding; strength is not graded here.

Amino acid sequences for entries named in this document (tags omitted).
UniProt Q8VCC8: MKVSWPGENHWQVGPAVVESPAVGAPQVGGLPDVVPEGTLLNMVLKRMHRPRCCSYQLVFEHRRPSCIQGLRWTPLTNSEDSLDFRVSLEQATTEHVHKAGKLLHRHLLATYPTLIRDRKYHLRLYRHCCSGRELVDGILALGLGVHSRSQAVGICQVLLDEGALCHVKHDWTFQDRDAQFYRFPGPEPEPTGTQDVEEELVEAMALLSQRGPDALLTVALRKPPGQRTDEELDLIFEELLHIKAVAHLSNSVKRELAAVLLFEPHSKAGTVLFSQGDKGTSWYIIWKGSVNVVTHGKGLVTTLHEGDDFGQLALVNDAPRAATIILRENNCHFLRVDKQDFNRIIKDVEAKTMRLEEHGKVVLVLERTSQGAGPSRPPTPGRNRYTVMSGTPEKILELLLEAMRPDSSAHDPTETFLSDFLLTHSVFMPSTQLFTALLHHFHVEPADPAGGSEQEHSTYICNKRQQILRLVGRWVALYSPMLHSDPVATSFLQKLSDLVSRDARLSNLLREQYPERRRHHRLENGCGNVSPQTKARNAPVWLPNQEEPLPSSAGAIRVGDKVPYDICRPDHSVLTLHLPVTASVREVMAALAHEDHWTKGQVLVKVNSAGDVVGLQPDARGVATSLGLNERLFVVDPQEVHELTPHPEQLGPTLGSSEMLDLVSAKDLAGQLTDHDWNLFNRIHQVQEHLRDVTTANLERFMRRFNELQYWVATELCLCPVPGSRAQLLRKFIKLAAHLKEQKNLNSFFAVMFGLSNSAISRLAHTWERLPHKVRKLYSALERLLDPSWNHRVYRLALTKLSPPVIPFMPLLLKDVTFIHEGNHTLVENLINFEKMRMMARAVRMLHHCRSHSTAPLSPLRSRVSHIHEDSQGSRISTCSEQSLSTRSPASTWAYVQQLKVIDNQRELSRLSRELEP
UniProt Q9QZQ1: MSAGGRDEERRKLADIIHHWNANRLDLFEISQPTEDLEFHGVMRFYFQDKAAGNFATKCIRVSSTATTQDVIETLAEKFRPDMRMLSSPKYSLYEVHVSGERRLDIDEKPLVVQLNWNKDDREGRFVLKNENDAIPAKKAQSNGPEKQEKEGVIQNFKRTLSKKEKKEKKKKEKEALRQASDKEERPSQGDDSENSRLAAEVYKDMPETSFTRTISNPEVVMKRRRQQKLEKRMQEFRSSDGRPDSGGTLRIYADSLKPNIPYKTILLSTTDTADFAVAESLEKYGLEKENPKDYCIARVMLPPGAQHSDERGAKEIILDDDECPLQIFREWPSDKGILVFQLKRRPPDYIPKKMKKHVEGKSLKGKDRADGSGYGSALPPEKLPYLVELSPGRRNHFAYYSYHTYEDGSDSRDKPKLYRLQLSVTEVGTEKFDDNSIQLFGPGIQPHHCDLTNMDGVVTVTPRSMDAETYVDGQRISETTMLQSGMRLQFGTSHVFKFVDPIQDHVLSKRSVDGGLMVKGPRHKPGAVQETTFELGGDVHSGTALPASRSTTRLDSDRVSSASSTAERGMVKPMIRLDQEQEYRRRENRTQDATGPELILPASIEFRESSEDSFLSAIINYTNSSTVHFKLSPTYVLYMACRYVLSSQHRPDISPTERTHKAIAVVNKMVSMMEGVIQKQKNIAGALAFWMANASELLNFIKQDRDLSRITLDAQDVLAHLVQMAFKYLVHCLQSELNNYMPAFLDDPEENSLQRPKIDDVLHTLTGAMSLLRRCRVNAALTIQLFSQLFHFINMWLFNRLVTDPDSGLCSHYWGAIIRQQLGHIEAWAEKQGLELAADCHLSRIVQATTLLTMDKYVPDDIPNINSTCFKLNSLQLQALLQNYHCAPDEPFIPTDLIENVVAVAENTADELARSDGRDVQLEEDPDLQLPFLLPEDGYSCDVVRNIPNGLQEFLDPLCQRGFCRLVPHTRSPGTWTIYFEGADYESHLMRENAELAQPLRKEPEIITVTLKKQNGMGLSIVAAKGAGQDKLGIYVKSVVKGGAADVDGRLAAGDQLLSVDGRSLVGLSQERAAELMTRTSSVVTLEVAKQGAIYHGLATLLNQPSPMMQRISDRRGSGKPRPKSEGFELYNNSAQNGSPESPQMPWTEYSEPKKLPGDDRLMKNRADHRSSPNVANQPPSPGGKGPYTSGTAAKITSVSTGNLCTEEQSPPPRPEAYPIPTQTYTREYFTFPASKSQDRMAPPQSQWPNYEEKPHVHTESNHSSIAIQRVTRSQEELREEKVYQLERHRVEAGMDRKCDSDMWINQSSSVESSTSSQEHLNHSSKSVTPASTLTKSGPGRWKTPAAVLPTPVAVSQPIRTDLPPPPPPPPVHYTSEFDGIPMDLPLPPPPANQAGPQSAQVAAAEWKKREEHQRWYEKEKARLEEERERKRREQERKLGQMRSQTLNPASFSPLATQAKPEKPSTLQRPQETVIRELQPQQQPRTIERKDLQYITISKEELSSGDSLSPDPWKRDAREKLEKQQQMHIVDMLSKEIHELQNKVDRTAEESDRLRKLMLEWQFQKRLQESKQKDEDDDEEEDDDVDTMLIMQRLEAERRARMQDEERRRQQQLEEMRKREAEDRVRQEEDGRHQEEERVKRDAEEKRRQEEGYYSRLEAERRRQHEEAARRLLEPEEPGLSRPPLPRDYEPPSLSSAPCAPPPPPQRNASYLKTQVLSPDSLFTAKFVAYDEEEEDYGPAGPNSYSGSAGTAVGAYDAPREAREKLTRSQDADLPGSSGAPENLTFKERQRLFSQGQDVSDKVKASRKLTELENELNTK
UniProt Q9EQZ6: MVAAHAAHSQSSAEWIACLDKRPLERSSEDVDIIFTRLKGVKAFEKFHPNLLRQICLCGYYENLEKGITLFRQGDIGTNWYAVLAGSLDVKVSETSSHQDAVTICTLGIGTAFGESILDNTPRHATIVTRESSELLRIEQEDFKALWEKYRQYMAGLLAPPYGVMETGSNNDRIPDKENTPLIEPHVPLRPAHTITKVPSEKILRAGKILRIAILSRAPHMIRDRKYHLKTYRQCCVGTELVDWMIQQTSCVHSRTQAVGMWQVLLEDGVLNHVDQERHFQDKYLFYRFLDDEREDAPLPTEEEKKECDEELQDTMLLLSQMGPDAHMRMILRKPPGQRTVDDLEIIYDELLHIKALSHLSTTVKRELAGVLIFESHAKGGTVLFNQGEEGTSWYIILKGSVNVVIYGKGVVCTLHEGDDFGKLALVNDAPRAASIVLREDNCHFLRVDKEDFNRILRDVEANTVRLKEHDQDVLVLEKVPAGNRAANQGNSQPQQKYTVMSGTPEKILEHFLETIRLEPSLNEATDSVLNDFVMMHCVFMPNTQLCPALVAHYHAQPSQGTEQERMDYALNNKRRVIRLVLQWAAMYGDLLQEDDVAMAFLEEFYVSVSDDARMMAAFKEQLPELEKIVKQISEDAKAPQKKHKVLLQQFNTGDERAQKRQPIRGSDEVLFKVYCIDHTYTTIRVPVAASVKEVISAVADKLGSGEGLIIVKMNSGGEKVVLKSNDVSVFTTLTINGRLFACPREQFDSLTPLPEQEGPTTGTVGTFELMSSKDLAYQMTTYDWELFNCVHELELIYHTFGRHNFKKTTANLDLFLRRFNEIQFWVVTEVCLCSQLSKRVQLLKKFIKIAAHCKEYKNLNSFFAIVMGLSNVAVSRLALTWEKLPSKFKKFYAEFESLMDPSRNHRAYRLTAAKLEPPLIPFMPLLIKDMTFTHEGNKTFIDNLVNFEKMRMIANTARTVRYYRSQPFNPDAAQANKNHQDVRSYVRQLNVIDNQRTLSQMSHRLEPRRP

Molecular target: T1, junctional adhesion molecule-A (mouse (endogenous in lung endothelial cells)) (UniProt O88792)
T1 sequence: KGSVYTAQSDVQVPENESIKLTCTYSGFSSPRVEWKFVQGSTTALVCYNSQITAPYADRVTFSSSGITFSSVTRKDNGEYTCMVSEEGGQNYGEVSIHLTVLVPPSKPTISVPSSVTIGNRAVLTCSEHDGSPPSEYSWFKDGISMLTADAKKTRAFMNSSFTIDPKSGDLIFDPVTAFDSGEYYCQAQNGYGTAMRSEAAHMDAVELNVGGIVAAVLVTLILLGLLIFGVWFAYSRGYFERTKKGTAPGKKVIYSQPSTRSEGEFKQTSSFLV
Test: co-IP; confluent murine JAM-A-WT endothelial cells incubated with dithiobis-(succinimidyl) propionate (cross-linker) 30 min at 37°C, lysed in RIPA buffer; JAM-A or EPAC-2 immunoprecipitated overnight from 8 mg total extract, IgG as control; immunoblotting

binding, binds:
EPAC-1 (from UniProt Q8VCC8 1-918), afadin (from UniProt Q9QZQ1 1-1820), EPAC-2 (from UniProt Q9EQZ6 1-1011)
